Test results as given in article PMC7518614.
No constants are given. Whether binding was seen depends on the method and setting. In cells and extracts the contact can be indirect. Some entries that bind do so weakly or less than the wild type. For some assays here: Tags and fused reporters may be left off the sequences shown.

The chains behind the UniProt entries cited, without tags or fusion partners.
UniProt Q9CW03: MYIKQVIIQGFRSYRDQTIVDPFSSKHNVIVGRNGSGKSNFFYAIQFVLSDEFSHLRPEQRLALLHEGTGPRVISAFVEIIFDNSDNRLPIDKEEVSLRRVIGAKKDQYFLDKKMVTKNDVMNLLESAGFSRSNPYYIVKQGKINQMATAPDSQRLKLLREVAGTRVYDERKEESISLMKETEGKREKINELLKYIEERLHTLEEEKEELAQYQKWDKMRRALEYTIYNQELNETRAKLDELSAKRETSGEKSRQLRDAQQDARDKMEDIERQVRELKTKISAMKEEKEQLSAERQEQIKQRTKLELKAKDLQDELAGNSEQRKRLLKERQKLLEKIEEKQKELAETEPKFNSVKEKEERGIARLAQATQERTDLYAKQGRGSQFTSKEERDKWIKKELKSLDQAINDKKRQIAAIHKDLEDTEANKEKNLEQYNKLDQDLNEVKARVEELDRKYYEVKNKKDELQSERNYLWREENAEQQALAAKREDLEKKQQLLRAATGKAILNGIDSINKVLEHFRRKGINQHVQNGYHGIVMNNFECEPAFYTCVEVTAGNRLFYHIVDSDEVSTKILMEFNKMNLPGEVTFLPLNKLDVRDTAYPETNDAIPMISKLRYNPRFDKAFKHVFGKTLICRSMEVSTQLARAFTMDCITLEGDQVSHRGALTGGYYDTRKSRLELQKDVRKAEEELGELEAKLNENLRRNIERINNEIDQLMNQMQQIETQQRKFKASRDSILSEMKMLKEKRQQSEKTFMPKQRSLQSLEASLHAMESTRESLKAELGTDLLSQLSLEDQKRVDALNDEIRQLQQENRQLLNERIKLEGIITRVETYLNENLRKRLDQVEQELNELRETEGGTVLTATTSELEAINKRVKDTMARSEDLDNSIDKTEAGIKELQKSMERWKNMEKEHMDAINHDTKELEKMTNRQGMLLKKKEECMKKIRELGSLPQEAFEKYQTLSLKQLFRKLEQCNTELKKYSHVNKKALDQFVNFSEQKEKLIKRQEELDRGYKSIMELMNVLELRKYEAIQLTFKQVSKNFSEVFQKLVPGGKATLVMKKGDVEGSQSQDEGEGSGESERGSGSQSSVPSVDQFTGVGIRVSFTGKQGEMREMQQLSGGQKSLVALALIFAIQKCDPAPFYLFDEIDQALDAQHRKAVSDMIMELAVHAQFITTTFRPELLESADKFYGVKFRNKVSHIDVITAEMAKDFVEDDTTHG

T1: HORMAD1 (mouse (endogenous in testis)) (UniProt Q9D5T7)
T1 sequence: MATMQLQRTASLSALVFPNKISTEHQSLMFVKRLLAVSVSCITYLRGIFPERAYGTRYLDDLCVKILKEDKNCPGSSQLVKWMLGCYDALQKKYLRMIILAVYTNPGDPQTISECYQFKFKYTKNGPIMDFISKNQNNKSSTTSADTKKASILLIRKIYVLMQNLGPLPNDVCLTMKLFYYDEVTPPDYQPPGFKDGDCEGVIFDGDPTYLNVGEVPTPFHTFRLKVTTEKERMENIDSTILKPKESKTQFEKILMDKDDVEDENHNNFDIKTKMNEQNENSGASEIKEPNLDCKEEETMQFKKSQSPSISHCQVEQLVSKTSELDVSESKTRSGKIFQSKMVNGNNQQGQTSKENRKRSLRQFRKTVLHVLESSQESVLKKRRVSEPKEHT


Columns and labels:
[1] = target: T1, HORMAD1 (mouse (endogenous in testis)); test: co-IP; IP with anti-HORMAD1 antibody from chromatin-bound mouse testis extracts, western blot of the immunoprecipitates; WT testes (Fig 1D), WT (10 dpp) and Sycp2-KO testes (Fig 3F)
[2] = target: T1, HORMAD1 (mouse (endogenous in testis)); test: proximity ligation; Duolink in situ PLA on spread chromatin of WT mouse spermatocytes; rabbit anti-HORMAD1 with mouse anti-RAD21L or anti-REC8; Hormad1-KO cells as negative control

Molecule | binding [1] | binding [2]
SMC3 (from UniProt Q9CW03 1-1217) | binds | –
REC8 (protein, UniProt Q8C5S7 1-591) MFYYPNVLQRHTGCFATIWLAATRGSRLVKREYLNVNVVKTCEEILNYVLVRVQPPVAGLPRPRFSLYLSAQLQIGVIRVYFQQCQYLVEDIQHILEHLHRAQLRIRIDMEEADLPSLLLPNCLAMMETLEDAPEPFFGKMSVDPRLPSPFDIPQIRHLLEAATPEKTRKETLPEATPDPRKPDRTLATVQSPEVITLQEAEPIRMLQIEGEQDLPEISRGDLELLIAEKDDAILLEERQRGRLLRQRRASLPLDESREEPRALEGAGLVSALSPPAPAQVEGIQEALPGQVFPPEVQKMTGWEPGALLTEVTPPQELRLPAPPSTEKRLPSLQRPLPRRHRRRQLLFWDKETQISREKFEEQLQTGAHCWEYPVAQPPKRMLTSPAELFRTPTLSGWLPPELLGLWTHCAQVPQRMLRQRPQLETEETVEEERAADEEERRKTEALSEIEVLREAQEPSGPLMLSSELSLEAAEDEKSRTSLIPPEWWAWSEEGQPEPPALPMLPELPEVPMEMPPRPELSSEAVLRAVALKLQANKELDFSSLVPPLSPRKLASRVFYLLLVLSTQKILLVEQQKPYGPLLIRPGPKFP | binds | binds
STAG3 (protein, UniProt O70576 1-1240) MPTLWSPSTQHHGSSSGSESSPLQKSVRRAQMALSPCSSSILPCDDRDSQGTAEWDSPSTNEDSDFEDSLRRNVKKRAAKQPPKAVPAAKHRKKQSRIVSSGNGKNESVPSTNYLFDAVKAARSCMQSLVDEWLDNYKQDENAGFLELINFFIRACGCKSTVTPEMFKTMSNSEIIQHLTEEFNEDSGDYPLTAPGPSWKKFQGSFCEFVKTLVYQCQYSLLYDGFPMDDLISLLIGLSDSQVRAFRHTSTLAAMKLMTSLVKVALQLSLHKDNNQRQYEAERNKGPEQRAPERLESLLEKRKEFQENQEDIEGMMNAIFRGVFVHRYRDILPEIRAICIEEIGYWMQSYSTSFLNDSYLKYIGWTLHDKHKEVRLKCVKALAGLYSNQELSLRMELFTNRFKDRMVSMVMDRECEVAVEAIRLLTLILKNMEGVLTSADCEKIYSIVYISNRAMASSAGEFVYWKIFHPECGAKAVSDRERRRSPQAQKTFIYLLLAFFMESEHHNHAAYLVDSLWDCAGSYLKDWESLTNLLLQKDQNLGDMQERMLIEILVSSARQAAEGHPPVGRITGKKSLTAKERKLQAYDKMKLAEHLIPLLPQLLAKFSADAENVAPLLQLLSYFDLSIYCTQRLEKHLELLLQQLQEVVVKHVEPEVLEAAAHALYLLCKPEFTFFSRVDFARSQLVDFLTDRFQQELDDLMQSSFLDEDEVYSLTATLKRLSAFYNAHDLTRWEISEPCSRLLRKAVDTGEVPHQVILPALTLVYFSILWTVTHISESTSHKQLMSLKKRMVAFCELCQSCLSDVDPEIQEQAFVLLSDLLLIFSPQMIVGGRDFLRPLVFFPEATLQSELASFLMDHVFLQPGELGNGQSQEDHVQIELLHQRRRLLAGFCKLLLYGVLELDAASDVFKHYNKFYEDYGDIIKETLTRARQIDRCQCSRILLLSLKQLYTELIQEQGPQGLTELPAFIEMRDLARRFALSFGPQQLHNRDLVVMLHKEGIKFSLSELPPAGSSHEPPNLAFLELLSEFSPRLFHQDKRLLLSYLEKCLQRVSKAPNHPWGPVTTYCHSLHPLEITAEASPRGPPHSKKRCVEGPCRPQEEESSSQEESLQLNSGPTTPTLTSTAVKRKQSLRTVGKKQKGRPGPGPGPGPELICSQQLLGTQRLKMSSAPCFQIRCDPSGSGLGKQLTRLSLMEEDEEEELRLLDEEWQRGDKMLHSPSSPSEHGLDLLDTTELNMEDF | binds | –
SMC1α (protein, UniProt Q9CU62 1-1233) MGFLKLIEIENFKSYKGRQIIGPFQRFTAIIGPNGSGKSNLMDAISFVLGEKTSNLRVKTLRDLIHGAPVGKPAANRAFVSMVYSEEGAEDRTFARVIVGGSSEYKINNKVVQLHEYSEELEKLGILIKARNFLVFQGAVESIAMKNPKERTALFEEISRSGELAQEYDKRKKEMVKAEEDTQFNYHRKKNIAAERKEAKQEKEEADRYQRLKDEVVRAQVQLQLFKLYHNEVEIEKLNKELASKNKEIEKDKKRMDKVEDELKEKKKELGKMMREQQQIEKEIKEKDSELNQKRPQYIKAKENTSHKIKKLEAAKKSLQNAQKHYKKRKGDMDELEKEMLSVEKARQEFEERMEEESQSQGRDLTLEENQVKKYHRLKEEASKRAATLAQELEKFNRDQKADQDRLDLEERKKVETEAKIKQKLREIEENQKRIEKLEEYITTSKQSLEEQKKLEGELTEEVEMAKRRIDEINKELNQVMEQLGDARIDRQESSRQQRKAEIMESIKRLYPGSVYGRLIDLCQPTQKKYQIAVTKVLGKNMDAIIVDSEKTGRDCIQYIKEQRGEPETFLPLDYLEVKPTDEKLRELKGAKLVIDVIRYEPPHIKKALQYACGNALVCDNVEDARRIAFGGHQRHKTVALDGTLFQKSGVISGGASDLKAKARRWDEKAVDKLKEKKERLTEELKEQMKAKRKEAELRQVQSQAHGLQMRLKYSQSDLEQTKTRHLALNLQEKSKLESELANFGPRINDIKRIIQSREREMKDLKEKMNQVEDEVFEEFCREIGVRNIREFEEEKVKRQNEIAKKRLEFENQKTRLGIQLDFEKNQLKEDQDKVHMWEQTVKKDENEIEKLKKEEQRHMKIIDETMAQLQDLKNQHLAKKSEVNDKNHEMEEIRKKLGGANKEMTHLQKEVTAIETKLEQKRSDRHNLLQACKMQDIKLPLSKGTMDDISQEEGSSQGEESVSGSQRTSSIYAREALIEIDYGDLCEDLKDAQAEEEIKQEMNTLQQKLNEQQSVLQRIAAPNMKAMEKLESVRDKFQETSDEFEAARKRAKKAKQAFEQIKKERFDRFNACFESVATNIDEIYKALSRNSSAQAFLGPENPEEPYLDGINYNCVAPGKRFRPMDNLSGGEKTVAALALLFAIHSYKPAPFFVLDEIDAALDNTNIGKVANYIKEQSTCNFQAIVISLKEEFYTKAESLIGVYPEQGDCVISKVLTFDLTKYPDANPNPNEQ | binds | –
